Results published in publication PMC9562641.
Results are given in words; binding and its absence hold for the method and conditions named. For some assays here: In cells and extracts the contact can be indirect. Some results given as binding are weak or reduced against the parent protein; the word gives no strength.

Amino acid sequences for entries named in this document (tags omitted).
UniProt Q16539: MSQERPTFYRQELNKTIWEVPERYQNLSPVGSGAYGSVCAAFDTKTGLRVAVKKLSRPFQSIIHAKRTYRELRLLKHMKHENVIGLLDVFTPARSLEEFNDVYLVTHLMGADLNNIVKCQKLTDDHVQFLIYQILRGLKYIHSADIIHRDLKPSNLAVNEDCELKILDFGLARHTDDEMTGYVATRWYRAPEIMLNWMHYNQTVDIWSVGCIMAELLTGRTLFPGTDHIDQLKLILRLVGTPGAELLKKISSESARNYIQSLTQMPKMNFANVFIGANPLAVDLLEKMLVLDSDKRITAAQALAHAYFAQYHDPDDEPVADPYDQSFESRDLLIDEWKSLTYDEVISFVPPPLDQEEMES
UniProt P01106: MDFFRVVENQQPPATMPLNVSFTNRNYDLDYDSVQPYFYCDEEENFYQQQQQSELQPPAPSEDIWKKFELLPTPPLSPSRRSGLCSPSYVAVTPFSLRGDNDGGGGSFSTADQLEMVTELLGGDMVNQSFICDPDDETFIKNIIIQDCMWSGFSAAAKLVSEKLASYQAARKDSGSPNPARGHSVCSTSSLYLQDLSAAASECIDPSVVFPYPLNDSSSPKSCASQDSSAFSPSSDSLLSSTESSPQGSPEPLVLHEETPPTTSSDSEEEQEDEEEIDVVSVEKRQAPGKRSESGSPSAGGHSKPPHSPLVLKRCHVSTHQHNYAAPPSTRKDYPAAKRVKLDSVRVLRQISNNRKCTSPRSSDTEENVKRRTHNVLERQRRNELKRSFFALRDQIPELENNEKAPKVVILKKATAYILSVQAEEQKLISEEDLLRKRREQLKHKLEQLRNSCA

Tests used:
[1] = molecular target: GST-p38α human recombinant protein (human) (UniProt Q16539); assay: pull-down; GST-p38α incubated with c-MYC recombinant protein for 1 h at 4 °C on a rocking platform; precipitated with glutathione magnetic agarose beads; washed in buffer A (20 mM Tris-HCl pH 8, 150 mM KCl, 5 mM MgCl2, 0.2 mM EDTA, 10% glycerol, 0.1% NP-40, 1 mM DTT); immunoblot with anti-GST, anti-HIS and anti-c-MYC; both purified
[2] = molecular target: endogenous p38α (human (endogenous in HT29)) (UniProt Q16539); assay: co-IP; HT29 whole-cell lysates immunoprecipitated with anti-p38α or anti-c-MYC, then immunoblotting; IgG as negative control; endogenous proteins

Substance	binding [1]	binding [2]
c-MYC human recombinant protein (Abcam) (from UniProt P01106 1-454)	binds	
endogenous c-MYC (from UniProt P01106 1-454)		binds
